Reference: PubChem BioAssay AID602196 (INSERM, 2012)
This is an unselected part of about 23,000 reagents tested. 455 of all reagents (2%) were called active. 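Active includes both protection and sensitisation; some change values fall well beyond the stated -50 to +50 range.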 A number with no mark means an inactive call. No sequences are given here. Not given: the amount of reagent.

Purpose: 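Genes whose knock-down alters cisplatin killing of lung cancer cells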
Cells: human A549 lung cancer cells
Reagent: siRNA pair against human genes
Time to read-out: 48 h transfection before cisplatin; time from cisplatin to read-out not stated
Challenge: cisplatin at a dose killing half of control-siRNA cells; exact dose and duration not given
Read-out: 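Cisplatin cell death as a shift from the 50% death seen with control siRNA; siRNAs toxic or growth-blocking alone scored 0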
Reading the numbers: two-siRNA summed score (-2 to +2): higher = both siRNAs protect from cisplatin killing; -2 means both sensitise; mean protection from cisplatin (shift in death) and protection from cisplatin (shift in death), siRNA C and protection from cisplatin (shift in death), siRNA D: higher = protection from cisplatin killing
Call rule: 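Each siRNA scores 0 if harmful alone by LDH or WST-1, otherwise +1 if it reduces and -1 if it increases cisplatin killing; a gene is active when both siRNAs agree (sum +2 or -2)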
Meaning of the calls: active = both siRNAs shift cisplatin killing the same way; inactive = no consistent shift, or siRNA harmful alone

gene | two-siRNA summed score (-2 to +2) | mean protection from cisplatin (shift in death) (%) | protection from cisplatin (shift in death), siRNA C (%) | protection from cisplatin (shift in death), siRNA D (%)
FLJ13373 | 1 | 10.3 | -1.4 | 22.1
LOC256096 | 0 | 7.3 | 4.7 | 9.9
ALG12 | 0 | 2 | 11.6 | -7.6
HMBOX1 | -1 | -6 | -1.2 | -10.8
LOC388963 | 0 | 6.7 | 11 | 2.4
LOC441992 | 1 | 24.3 | 33.7 | 14.9
ZBTB20 | 0 | 6.2 | -2.8 | 15.2
RDH16 | -1 | -12.3 | -14.2 | -10.3
DEFB106A | 1 | 0.7 | 15.1 | -13.7
RASL11A | 0 | 4.5 | -1 | 10
LOC127003 | 0 | 22.9 | 26.4 | 19.3
LOC392030 | 1 | 7.8 | 0.3 | 15.3
GPR61 | 0 | -9.7 | -8.2 | -11.2
LMAN1L | 0 | -1.6 | -3.3 | 0.1
KLHL35 | 0 | -2.9 | 3.9 | -9.7
LOC401216 | 0 | 5.5 | 13.4 | -2.3
UTP15 | 1 | 8 | 10.2 | 5.9
LOC441426 | 1 | 19.7 | 13.8 | 25.5
LOC441432 | 1 | 7.2 | 16.2 | -1.8
CLCA1 | 0 | 15.6 | 2.8 | 28.4
LOC388466 | 1 | 14.5 | 9.1 | 20
LOC255326 | 0 | 5.1 | 5 | 5.2
DRC7 | 0 | 2 | 2.2 | 1.8

2 entries from above, arranged by “mean protection from cisplatin (shift in death) (%)”, highest first:
gene | two-siRNA summed score (-2 to +2) | mean protection from cisplatin (shift in death) (%) | protection from cisplatin (shift in death), siRNA C (%) | protection from cisplatin (shift in death), siRNA D (%)
LOC441992 | 1 | 24.3 | 33.7 | 14.9
ZBTB20 | 0 | 6.2 | -2.8 | 15.2
